Measured values from article doi:10.1101/2025.01.23.634542, “Convergent Agonist and Heat Activation of Nociceptor TRPM3” (bioRxiv, 2025).

Test system: rTRPM3
Test: Cryo-EM subunit and tetramer conformational analysis of ligand-bound rTRPM3
Set-up: species or system rabbit
Settings: 18 °C; for Proportion of subunits in the activated conformation: apo 16%

| Compound | Proportion of subunits in the activated conformation | Proportion of tetramers with three or four activated subunits (apo 18 °C 2%) |
| --- | --- | --- |
| Cc1cc(NC(=O)C(c2ccccc2)N2CCCc3ccccc32)no1 (stereo not drawn) [CIM0216] | 80% | 83% |
| CCC1(c2ccccc2)C(=O)NCNC1=O [primidone] | 30% | – |
